# Experimental data from PubChem BioAssay AID190 (DTP/NCI, 2004).
# The list is a part of this screen's results and no random one: it gathers tests that were run many times, whatever their T/C, doses with no T/C, and many T/C values between a quarter and a half above the control. Other doses and runs of a compound stand elsewhere. T/C gives the treated animals as a percentage of the vehicle group. Some doses have a count of surviving animals in place of a T/C: the source holds a T/C of zero for them, seemingly a mark for toxic or unscored doses. Some doses without a T/C left all or most animals alive at the check, yet need not have been tolerated: the source hardly ever lists a survival T/C far under the control, and the zero likely stands for such cases as well. Survivors were counted at the toxicity check, usually on the fifth day, unless a day is given; later deaths do not show. Schedules are NCI's codes, taken here to give the interval after Q, in days (D) or hours (H), and the number of doses after X. For survival time, this PubChem deposit counts one and a half times the control or more as active, and values a quarter to a half above the control carry no call in these data; other NCI protocols may use other cut-offs.
# Test system: AKR/Lw mice, AKR lymphoma ip, median survival T/C
# Test: NCI In Vivo Anticancer Drug Screen. Data for tumor model Lymphoma AKR (Transplanted) (intraperitoneal) in AKR/Lw mice
# Conditions: T/C endpoint: median survival time, higher T/C = longer survival
# Description: The antitumor activity of compounds was measured in mice bearing transplantable tumors. Survival or tumor size were measured and the results are expressed as the measurement made in the treated group (T) divided by the measurement made in the vehicle treated control group (C). The tumor model used in this assay is Lymphoma AKR (Transplanted) (intraperitoneal) in AKR/Lw mice
# [1] = dose: 200.0 mg/kg/injection, schedule: Q01DX001 (ip), vehicle: saline
# [2] = dose: 200.0 mg/kg/injection, schedule: Q04DX003 (ip), vehicle: saline
structure (smiles),measurement,setting,value
CCN(CC)CCOc1ccc2c(c1)C(=O)c1cc(OCCN(CC)CC)ccc1-2,survivor count,"dose: 12.5 mg/kg/injection, schedule: Q01DX007 (ip), vehicle: saline",10 of 10
same,survivor count,"dose: 25.0 mg/kg/injection, schedule: Q01DX001 (ip), vehicle: saline",10 of 10
same,survivor count,"dose: 100.0 mg/kg/injection, schedule: Q01DX001 (ip), vehicle: saline",5 of 10
same,survivor count,"dose: 100.0 mg/kg/injection, schedule: Q01DX007 (ip), vehicle: saline",6 of 10
same,survivor count,[1],2 of 10
same,survivor count,"dose: 200.0 mg/kg/injection, schedule: Q01DX007 (ip), vehicle: saline",0 of 10
Cc1cnc2c(N)[nH]nc2n1,survivor count,"dose: 100.0 mg/kg/injection, schedule: Q01DX001 (ip), vehicle: Klucel (hydroxypropylcellulose) (HPC)",5 of 10
same,survivor count,"dose: 200.0 mg/kg/injection, schedule: Q01DX001 (ip), vehicle: Klucel (hydroxypropylcellulose) (HPC)",0 of 10
same,survivor count,"dose: 400.0 mg/kg/injection, schedule: Q01DX001 (ip), vehicle: Klucel (hydroxypropylcellulose) (HPC)",10 of 10
O=C(Nc1cccc(Cl)c1)Oc1ccc2ccccc2c1,T/C,"dose: 25.0 mg/kg/injection, schedule: Q01DX009 (ip), vehicle: saline",132 % of control
same,T/C,"dose: 50.0 mg/kg/injection, schedule: Q01DX009 (ip), vehicle: saline",130 % of control
same,survivor count,"dose: 100.0 mg/kg/injection, schedule: Q04DX003 (ip), vehicle: saline",10 of 10
same,survivor count,[2],10 of 10
Clc1nnc(Nc2ccccc2)c2ccccc12,survivor count,[2],10 of 10
same,survivor count,"dose: 400.0 mg/kg/injection, schedule: Q04DX003 (ip), vehicle: saline",10 of 10
CCCCCCCCCCCCCCCC(=O)N(CCCN)CCCCCCCCCN(CCCN)C(=O)CCCCCCCCCCCCCCC,survivor count,"dose: 25.0 mg/kg/injection, schedule: Q04DX003 (ip), vehicle: other",10 of 10
same,survivor count,[1],4 of 10
same,survivor count,"dose: 400.0 mg/kg/injection, schedule: Q01DX001 (ip), vehicle: saline",1 of 10
CC(=O)CC(=O)Nc1ccc([N+](=O)[O-])cc1,survivor count,"dose: 200.0 mg/kg/injection, schedule: Q01DX001 (ip), vehicle: saline with Tween-80",9 of 10
CC(=O)OCC(=O)[C@@]1(O)CC[C@H]2[C@@H]3C[C@H](F)C4=CC(=O)CC[C@]4(C)[C@H]3C(=O)C[C@@]21C,survivor count,"dose: 100.0 mg/kg/injection, schedule: Q04DX003 (ip), vehicle: saline with Tween-80",10 of 10
same,survivor count,"dose: 200.0 mg/kg/injection, schedule: Q04DX003 (ip), vehicle: saline with Tween-80",9 of 10
same,survivor count,"dose: 400.0 mg/kg/injection, schedule: Q01DX001 (ip), vehicle: saline with Tween-80",9 of 10
C[C@@H]1C[C@H]2[C@@H]3CCC4=CC(=O)C=C[C@]4(C)[C@@]3(F)[C@@H](O)C[C@]2(C)[C@@]1(O)C(=O)CO,T/C,"dose: 2.0 mg/kg/injection, schedule: Q01DX004 (sc), vehicle: saline",128 % of control
same,T/C,"dose: 4.0 mg/kg/injection, schedule: Q01DX004 (sc), vehicle: saline",132 % of control
same,survivor count,"dose: 4.5 mg/kg/injection, schedule: Q01DX004 (sc), vehicle: saline",10 of 10
same,survivor count,"dose: 6.7 mg/kg/injection, schedule: Q01DX004 (sc), vehicle: saline",10 of 10
same,survivor count,"dose: 10.0 mg/kg/injection, schedule: Q01DX004 (sc), vehicle: saline",10 of 10
same,survivor count,"dose: 20.0 mg/kg/injection, schedule: Q01DX004 (sc), vehicle: saline",10 of 10
same,survivor count,"dose: 40.0 mg/kg/injection, schedule: Q01DX004 (sc), vehicle: saline",10 of 10
